Test results taken from PubChem BioAssay AID256 (DTP/NCI, 2004).
The list is a part of this screen's results and no random one: it is rich in T/C values a quarter to a half above the control, in often repeated tests (any T/C) and in doses without a T/C. Other doses and runs of a compound stand elsewhere. T/C: endpoint of the treated group in % of that of the vehicle group. Some doses have a count of surviving animals in place of a T/C: the source holds a T/C of zero for them, seemingly a mark for toxic or unscored doses. Some doses without a T/C left all or most animals alive at the check, yet need not have been tolerated: survival well below the control is almost never listed, so the zero probably covers shortened survival too. Counts of survivors are from the toxicity check (mostly the fifth day) where no day follows; animals may have died later. Schedules are NCI's codes, taken here to give the interval after Q, in days (D) or hours (H), and the number of doses after X. Some entries hold several experiments; the results are listed from low to high. Some schedules carry Z or #; the key to these is not given. For survival time, the PubChem record calls one and a half times the control and up active, and a quarter to a half above the control has no call in these data; cut-offs in other NCI protocols can differ.

System: CD2F1 mice, L1210 leukemia ip, survival T/C
Experiment: NCI In Vivo Anticancer Drug Screen. Data for tumor model L1210 Leukemia (intraperitoneal) in CD2F1 (CDF1) mice
Settings: higher T/C = longer survival
Method in brief: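 Compound-dosed mice with transplantable tumor versus matched vehicle controls; endpoint ratio T/C reported.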

[1] = T/C endpoint: mean survival time, dose: 400.0 mg/kg/injection, schedule: Q01DX001 (ip), vehicle: saline
[2] = T/C endpoint: mean survival time, dose: 100.0 mg/kg/injection, schedule: Q04DX002 (ip), vehicle: saline with Tween-80
[3] = T/C endpoint: mean survival time, dose: 200.0 mg/kg/injection, schedule: Q04DX002 (ip), vehicle: saline with Tween-80
[4] = T/C endpoint: mean survival time, dose: 400.0 mg/kg/injection, schedule: Q04DX002 (ip), vehicle: saline with Tween-80
[5] = T/C endpoint: mean survival time, dose: 100.0 mg/kg/injection, schedule: Q01DX009 (ip), vehicle: saline with Tween-80
[6] = T/C endpoint: mean survival time, dose: 200.0 mg/kg/injection, schedule: Q01DX009 (ip), vehicle: saline with Tween-80
[7] = T/C endpoint: mean survival time, dose: 400.0 mg/kg/injection, schedule: Q04DX003 (ip), vehicle: saline
[8] = T/C endpoint: mean survival time, dose: 200.0 mg/kg/injection, schedule: Q04DX003 (ip), vehicle: saline with Tween-80
[9] = T/C endpoint: mean survival time, dose: 400.0 mg/kg/injection, schedule: Q04DX003 (ip), vehicle: saline with Tween-80
[10] = T/C endpoint: mean survival time, dose: 1.56 mg/kg/injection, schedule: Q01DX009 (ip), vehicle: saline with Tween-80
[11] = T/C endpoint: mean survival time, dose: 3.13 mg/kg/injection, schedule: Q01DX009 (ip), vehicle: saline with Tween-80

C[N+]1(C)CCc2cc(O)c(O)cc2C1Cc1ccc(O)c(O)c1 (configuration not stated)
survivor count (T/C endpoint: mean survival time, dose: 150.0 mg/kg/injection, schedule: Q01DX001 (ip), vehicle: saline): 0 of 6 | survivor count (T/C endpoint: mean survival time, dose: 300.0 mg/kg/injection, schedule: Q01DX001 (ip), vehicle: saline): 0 of 6

CN1CCN(c2ccccc2)CC1
survivor count (T/C endpoint: mean survival time, dose: 200.0 mg/kg/injection, schedule: Q01DX001 (ip), vehicle: saline): 0 of 6 | survivor count [1]: 0 of 6

CN(C)c1nc2c(N)ncnc2n1C1OC(CO)C(O)C1O (configuration not stated)
survivor count [2]: 0 of 3 | survivor count [3]: 0 of 3 | survivor count [1]: 2 of 6 | survivor count [4]: 0 of 3

c1ccc2[nH]c(C3CCCCN3)cc2c1 (configuration not stated)
survivor count [1]: 0 of 6

CC1CC[N+](C)(CC(=O)c2ccc(-c3ccc(C(=O)C[N+]4(C)CCC(C)CC4)cc3)cc2)CC1 (configuration not stated)
survivor count (T/C endpoint: mean survival time, dose: 0.16 mg/kg/injection, schedule: Q04DX003 (ip), vehicle: Klucel (hydroxypropylcellulose) (HPC)): 1 of 6 | survivor count (T/C endpoint: mean survival time, dose: 0.31 mg/kg/injection, schedule: Q04DX003 (ip), vehicle: Klucel (hydroxypropylcellulose) (HPC)): 0 of 6 | survivor count (T/C endpoint: mean survival time, dose: 0.62 mg/kg/injection, schedule: Q04DX003 (ip), vehicle: Klucel (hydroxypropylcellulose) (HPC)): 0 of 6 | survivor count (T/C endpoint: mean survival time, dose: 1.25 mg/kg/injection, schedule: Q04DX003 (ip), vehicle: Klucel (hydroxypropylcellulose) (HPC)): 0 of 6

CC(=O)OCC1OC(n2cnc3c(NC(=O)c4ccccc4)ncnc32)C(OC(C)=O)C1OC(C)=O (configuration not stated)
survivor count (T/C endpoint: mean survival time, dose: 200.0 mg/kg/injection, schedule: Q01DX005 (ip), vehicle: distilled water + Tween-80): 3 of 6

c1cc(C2CCOCC2)ccn1
survivor count [5]: 6 of 6 | survivor count [6]: 0 of 6 | survivor count [7]: 0 of 6

C/C(=N\NC(=S)N1CC2CCC(CC2)C1)c1cccc(C)n1
survivor count (T/C endpoint: median survival time, dose: 50.0 mg/kg/injection, schedule: Q01DX005 (ip), vehicle: saline with Tween-80): 4 of 6 and 5 of 6

ClCC[Se](Cl)(Cl)c1ccccc1
survivor count (T/C endpoint: mean survival time, dose: 12.5 mg/kg/injection, schedule: Q01DX009 (ip), vehicle: saline): 3 of 6 and 5 of 6 | survivor count (T/C endpoint: mean survival time, dose: 25.0 mg/kg/injection, schedule: Q01DX009 (ip), vehicle: saline): 0 of 6 and 3 of 6

CCOC(=O)C(C)(Br)C(=O)OCC
survivor count [6]: 2 of 6

N=C(N)c1cccc(NC(=O)c2ccc(C(=O)Nc3cccc(C(=N)N)c3)c(N)c2)c1
survivor count (T/C endpoint: mean survival time, dose: 50.0 mg/kg/injection, schedule: Q01DX Z (ip), vehicle: carboxymethylcellulose (CMC)): 0 of 6 | survivor count (T/C endpoint: mean survival time, dose: 100.0 mg/kg/injection, schedule: Q01DX Z (ip), vehicle: carboxymethylcellulose (CMC)): 0 of 6 | survivor count (T/C endpoint: mean survival time, dose: 200.0 mg/kg/injection, schedule: Q01DX Z (ip), vehicle: carboxymethylcellulose (CMC)): 0 of 6 | survivor count (T/C endpoint: mean survival time, dose: 400.0 mg/kg/injection, schedule: Q01DX Z (ip), vehicle: carboxymethylcellulose (CMC)): 0 of 6

C=CCN(C)N=Nc1ccc(C(N)=O)cc1
T/C (T/C endpoint: mean survival time, dose: 75.0 mg/kg/injection, schedule: Q01DX009 (ip), vehicle: Klucel (hydroxypropylcellulose) (HPC)): 134 % of control

O=C(O)c1ccc([N+](=O)[O-])cc1C(=O)O.[NH-]C1CCCCC1[NH-].[Pt+2]
T/C (T/C endpoint: median survival time, dose: 12.5 mg/kg/injection, schedule: Q04DX003 (ip), vehicle: saline): 129 % of control | T/C (T/C endpoint: median survival time, dose: 25.0 mg/kg/injection, schedule: Q04DX003 (ip), vehicle: saline): 130 and 134 % of control | T/C (T/C endpoint: median survival time, dose: 50.0 mg/kg/injection, schedule: Q04DX003 (ip), vehicle: saline): 137 % of control | survivor count (T/C endpoint: median survival time, dose: 200.0 mg/kg/injection, schedule: Q04DX003 (ip), vehicle: saline): 6 of 6

CCCC(=O)Nc1ccc(N)cc1OC
survivor count (T/C endpoint: mean survival time, dose: 100.0 mg/kg/injection, schedule: Q04DX003 (ip), vehicle: saline sonified): 0 of 6 | survivor count (T/C endpoint: mean survival time, dose: 200.0 mg/kg/injection, schedule: Q04DX003 (ip), vehicle: saline sonified): 0 of 6 | survivor count (T/C endpoint: mean survival time, dose: 400.0 mg/kg/injection, schedule: Q04DX003 (ip), vehicle: saline sonified): 0 of 6

CCOc1cc[n+](C)c2ccc(C)cc12
survivor count [2]: 0 of 3 | survivor count [3]: 0 of 3 | survivor count [4]: 0 of 3

O=C1c2ccccc2CC1CN1CCCCC1 (configuration not stated)
survivor count [2]: 0 of 3 | survivor count [3]: 0 of 3 | survivor count [4]: 0 of 3

COc1ccc(Cc2c[n+](C)cc3cc(N=O)c(OC)cc23)cc1O
survivor count [1]: 1 of 6

CS(=O)(=O)Nc1ccc(C(=O)CCN2CCCCCC2)cc1
survivor count (T/C endpoint: median survival time, dose: 200.0 mg/kg/injection, schedule: Q01DX009 (ip), vehicle: saline): 3 of 6 | survivor count (T/C endpoint: median survival time, dose: 400.0 mg/kg/injection, schedule: Q01DX009 (ip), vehicle: saline): 5 of 6

CNc1c2c(nc3ccccc13)CCCC2
survivor count (T/C endpoint: mean survival time, dose: 10.0 mg/kg/injection, schedule: Q04DX003 (ip), vehicle: saline with Tween-80): 6 of 6 | survivor count (T/C endpoint: mean survival time, dose: 20.0 mg/kg/injection, schedule: Q04DX003 (ip), vehicle: saline with Tween-80): 0 of 6

Cc1ccc(C(C)C)c(OCCCBr)c1
survivor count [8]: 6 of 6 | survivor count [9]: 2 of 6

CC[CH2][Sn]([CH2]CC)([CH2]CCC#N)[O]C(C)=O
survivor count (T/C endpoint: mean survival time, dose: 0.78 mg/kg/injection, schedule: Q01DX009 (ip), vehicle: saline): 2 of 3

CCN(CC)CCNC(=O)C(O)(c1ccccc1)c1ccccc1
survivor count (T/C endpoint: mean survival time, dose: 200.0 mg/kg/injection, schedule: Q01DX009 (ip), vehicle: saline): 1 of 3

COc1ccc(OC)c(/C=C/c2ccc3ccccc3[n+]2C)c1
survivor count (T/C endpoint: mean survival time, dose: 20.0 mg/kg/injection, schedule: Q01DX009 (ip), vehicle: saline with Tween-80): 3 of 6 | survivor count (T/C endpoint: mean survival time, dose: 100.0 mg/kg/injection, schedule: Q04DX003 (ip), vehicle: saline with Tween-80): 0 of 6 | survivor count [8]: 0 of 6 | survivor count [9]: 0 of 6

NNC(=O)C1CC2CCC1C2 (configuration not stated)
survivor count [7]: 1 of 6

CCCCOC(=O)Nc1ccccn1
survivor count [4]: 2 of 3

S=C=NCc1cccc(CN=C=S)c1
survivor count (T/C endpoint: mean survival time, dose: 6.0 mg/kg/injection, schedule: Q01DX009 (ip), vehicle: saline with Tween-80): 3 of 6

COc1cc2c(cc1OC)C(C)=NCC2
survivor count (T/C endpoint: mean survival time, dose: 200.0 mg/kg/injection, schedule: Q04DX003 (ip), vehicle: saline): 0 of 6 | survivor count [7]: 0 of 6

Cc1cc(/C=C/c2ccc3cc(N(C)C)ccc3[n+]2C)c(C)n1-c1ccccc1
T/C (T/C endpoint: mean survival time, dose: 0.39 mg/kg/injection, schedule: Q01DX009 (ip), vehicle: saline with Tween-80): 133 % of control | T/C (T/C endpoint: mean survival time, dose: 0.78 mg/kg/injection, schedule: Q01DX009 (ip), vehicle: saline with Tween-80): 133 % of control | T/C [10]: 127 % of control | survivor count [10]: 1 of 6 | T/C [11]: 130 % of control | survivor count [11]: 0 of 6 | survivor count [5]: 0 of 6 | survivor count [6]: 0 of 6 | survivor count (T/C endpoint: mean survival time, dose: 400.0 mg/kg/injection, schedule: Q01DX009 (ip), vehicle: saline with Tween-80): 0 of 6

Nc1n[n+](-c2ccc(Cl)cc2)no1
survivor count (T/C endpoint: mean survival time, dose: 100.0 mg/kg/injection, schedule: Q01DX009 (ip), vehicle: water): 1 of 6

COc1ccc2oc3c(ccc[n+]3C)c(=O)c2c1
survivor count (T/C endpoint: median survival time, dose: 480.0 mg/kg/injection, schedule: Q01DX005 (ip), vehicle: saline with Tween-80): 2 of 6

CC1CCC(C(C)C2C(O)CC3C4CC=C5CC(O)CCC5(C)C4CCC32C)NC1 (configuration not stated)
survivor count [9]: 6 of 6

c1ccc([P+](C[P+](c2ccccc2)(c2ccccc2)c2ccccc2)(c2ccccc2)c2ccccc2)cc1
survivor count (T/C endpoint: mean survival time, dose: 100.0 mg/kg/injection, schedule: Q04DX003 (ip), vehicle: other): 0 of 6 | survivor count (T/C endpoint: mean survival time, dose: 200.0 mg/kg/injection, schedule: Q04DX003 (ip), vehicle: other): 0 of 6 | survivor count (T/C endpoint: mean survival time, dose: 400.0 mg/kg/injection, schedule: Q04DX003 (ip), vehicle: other): 0 of 6
